# PubChem BioAssay AID540276 (National Center for Advancing Translational Sciences (NCATS), 2011)
# Hit rate of the full screen: of about 300,000 compounds, about 5,400 (1.8%) were called active. The shares of active, inactive and inconclusive entries below differ from those in the screen. Calls come from the whole dose curve; tested in HEK293 cells. Where the call is inconclusive, the potency comes from a doubtful curve fit.
# Test: qHTS for inhibitors of binding or entry into cells for Marburg Virus
# Conditions: Marburg virus pseudotyped entry inhibition, cell reporter; activity change, negative = inhibition: at 37.8 µM (top of the series) unless noted
# % is set by controls: 0 for no effect and ±100 for the full control effect; potency is the fitted concentration of half-maximal effect.
SMILES,Potency,"activity change, negative = inhibition"
CCOc1cccc2sc(N(CCCN(C)C)C(=O)c3ccc(S(=O)(=O)N4CCCCCC4)cc3)nc12,"inconclusive: 35.5 µM [inhibitor, single point]",–
COc1ccccc1N1CCN(S(=O)(=O)CCNC(=O)C2CC2)CC1,–,inactive: -9.79% [at 46.1 µM]
COc1cc(OC)cc(C(=O)OCC(=O)Nc2cccc(S(=O)(=O)NC3=NCCCCC3)c2)c1,"inconclusive: 3.55 µM [inhibitor, single point]",–
O=C(C1CCN(Cc2ccc(F)cc2)CC1)N(CCO)Cc1ccccc1,–,inactive: 8.91%
CC(C)(C)OC(=O)N1CCC(c2c(C(=O)NC3CC3)cnn2-c2ccc(Cl)cc2)CC1,"inconclusive: 7.94 µM [inhibitor, partial curve, poor fit]",–
CCN1CCN(C2=C(Cl)C(=O)N(Cc3ccccc3)C2=O)CC1,–,inactive: -13.2%
Cc1onc(-c2c(F)cccc2Cl)c1C(=O)NC1=NCCS1,"inconclusive: 0.651 µM [inhibitor, full curve, poor fit]",–
O=C(c1cc2ccccc2o1)N1CCN(c2cccc(C(F)(F)F)c2)CC1,"inconclusive: 5.62 µM [activator, partial curve]",–
CCc1ccc(-c2nc(-c3ccncc3)no2)cc1,active: 12.6 µM,–
O=S(=O)(c1ccccc1)N1N=C(c2ccc(Cl)cc2)CC1c1ccco1 (centres undefined),active: 10 µM,–
Cc1ccc(-c2noc(-c3ccccc3F)n2)cc1,"inconclusive: 35.5 µM [inhibitor, single point]",–
CCOC(=O)c1c(-c2ccco2)csc1NC(=O)COC(=O)c1cnc(C)cn1,–,inactive: 19.4%
COc1ccc(C2C(C#N)=C(N)Oc3cc(O)ccc32)cc1OC (centres undefined),"inconclusive: 10 µM [inhibitor, partial curve, poor fit]",–
Cc1noc(-c2ccc(N3CCC(C)CC3)c([N+](=O)[O-])c2)n1,"inconclusive: 35.5 µM [activator, single point]",–
CSc1ccc(COC(=O)c2cc([N+](=O)[O-])ccc2N2CCOCC2)cc1,"inconclusive: 1.26 µM [inhibitor, full curve, poor fit]",–
Cc1ccc(C(NC(=O)c2ccccc2S(C)(=O)=O)c2ccccc2)cc1 (centres undefined),"inconclusive: 15.8 µM [inhibitor, partial curve, poor fit]",–
CCOC(=O)Cn1c(=O)oc2ccc(C)cc21,"inconclusive: 0.562 µM [activator, full curve, poor fit]",–
Cc1ccc(N/C=C2\CCCCC2=O)c(C)c1,–,inactive: -4.72%
Cc1cc(C(=O)CCl)c(C)n1CC1COc2ccccc2O1 (centres undefined),"inconclusive: 35.5 µM [inhibitor, single point]",–

# Pulled by compound from the list above (2):
SMILES,Potency,"activity change, negative = inhibition"
O=S(=O)(c1ccccc1)N1N=C(c2ccc(Cl)cc2)CC1c1ccco1 (centres undefined),active: 10 µM,–
Cc1noc(-c2ccc(N3CCC(C)CC3)c([N+](=O)[O-])c2)n1,"inconclusive: 35.5 µM [activator, single point]",–
